The assay concerns the target T1, exosomal GP73-c-FLAG fusion protein (UniProt Q8NBJ4).
T1 sequence: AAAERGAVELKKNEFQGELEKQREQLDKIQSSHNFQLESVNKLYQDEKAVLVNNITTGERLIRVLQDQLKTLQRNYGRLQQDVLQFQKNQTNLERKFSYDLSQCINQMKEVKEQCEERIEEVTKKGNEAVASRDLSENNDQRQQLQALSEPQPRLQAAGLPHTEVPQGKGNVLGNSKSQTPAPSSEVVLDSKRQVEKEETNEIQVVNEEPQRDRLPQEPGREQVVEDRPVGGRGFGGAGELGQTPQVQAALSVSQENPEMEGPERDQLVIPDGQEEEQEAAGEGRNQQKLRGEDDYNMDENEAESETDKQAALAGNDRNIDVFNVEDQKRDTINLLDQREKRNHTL
In words: affinity purification with mass spectrometry; HUVECs treated for 24 h with exosomes of HepG2 cells expressing GP73-c-FLAG (or FLAG alone); anti-FLAG M2 gel, SDS-PAGE, LC-MS/MS.

By UniProt entry, the sequences of proteins in these tests, tags left out.
UniProt Q9ULT8: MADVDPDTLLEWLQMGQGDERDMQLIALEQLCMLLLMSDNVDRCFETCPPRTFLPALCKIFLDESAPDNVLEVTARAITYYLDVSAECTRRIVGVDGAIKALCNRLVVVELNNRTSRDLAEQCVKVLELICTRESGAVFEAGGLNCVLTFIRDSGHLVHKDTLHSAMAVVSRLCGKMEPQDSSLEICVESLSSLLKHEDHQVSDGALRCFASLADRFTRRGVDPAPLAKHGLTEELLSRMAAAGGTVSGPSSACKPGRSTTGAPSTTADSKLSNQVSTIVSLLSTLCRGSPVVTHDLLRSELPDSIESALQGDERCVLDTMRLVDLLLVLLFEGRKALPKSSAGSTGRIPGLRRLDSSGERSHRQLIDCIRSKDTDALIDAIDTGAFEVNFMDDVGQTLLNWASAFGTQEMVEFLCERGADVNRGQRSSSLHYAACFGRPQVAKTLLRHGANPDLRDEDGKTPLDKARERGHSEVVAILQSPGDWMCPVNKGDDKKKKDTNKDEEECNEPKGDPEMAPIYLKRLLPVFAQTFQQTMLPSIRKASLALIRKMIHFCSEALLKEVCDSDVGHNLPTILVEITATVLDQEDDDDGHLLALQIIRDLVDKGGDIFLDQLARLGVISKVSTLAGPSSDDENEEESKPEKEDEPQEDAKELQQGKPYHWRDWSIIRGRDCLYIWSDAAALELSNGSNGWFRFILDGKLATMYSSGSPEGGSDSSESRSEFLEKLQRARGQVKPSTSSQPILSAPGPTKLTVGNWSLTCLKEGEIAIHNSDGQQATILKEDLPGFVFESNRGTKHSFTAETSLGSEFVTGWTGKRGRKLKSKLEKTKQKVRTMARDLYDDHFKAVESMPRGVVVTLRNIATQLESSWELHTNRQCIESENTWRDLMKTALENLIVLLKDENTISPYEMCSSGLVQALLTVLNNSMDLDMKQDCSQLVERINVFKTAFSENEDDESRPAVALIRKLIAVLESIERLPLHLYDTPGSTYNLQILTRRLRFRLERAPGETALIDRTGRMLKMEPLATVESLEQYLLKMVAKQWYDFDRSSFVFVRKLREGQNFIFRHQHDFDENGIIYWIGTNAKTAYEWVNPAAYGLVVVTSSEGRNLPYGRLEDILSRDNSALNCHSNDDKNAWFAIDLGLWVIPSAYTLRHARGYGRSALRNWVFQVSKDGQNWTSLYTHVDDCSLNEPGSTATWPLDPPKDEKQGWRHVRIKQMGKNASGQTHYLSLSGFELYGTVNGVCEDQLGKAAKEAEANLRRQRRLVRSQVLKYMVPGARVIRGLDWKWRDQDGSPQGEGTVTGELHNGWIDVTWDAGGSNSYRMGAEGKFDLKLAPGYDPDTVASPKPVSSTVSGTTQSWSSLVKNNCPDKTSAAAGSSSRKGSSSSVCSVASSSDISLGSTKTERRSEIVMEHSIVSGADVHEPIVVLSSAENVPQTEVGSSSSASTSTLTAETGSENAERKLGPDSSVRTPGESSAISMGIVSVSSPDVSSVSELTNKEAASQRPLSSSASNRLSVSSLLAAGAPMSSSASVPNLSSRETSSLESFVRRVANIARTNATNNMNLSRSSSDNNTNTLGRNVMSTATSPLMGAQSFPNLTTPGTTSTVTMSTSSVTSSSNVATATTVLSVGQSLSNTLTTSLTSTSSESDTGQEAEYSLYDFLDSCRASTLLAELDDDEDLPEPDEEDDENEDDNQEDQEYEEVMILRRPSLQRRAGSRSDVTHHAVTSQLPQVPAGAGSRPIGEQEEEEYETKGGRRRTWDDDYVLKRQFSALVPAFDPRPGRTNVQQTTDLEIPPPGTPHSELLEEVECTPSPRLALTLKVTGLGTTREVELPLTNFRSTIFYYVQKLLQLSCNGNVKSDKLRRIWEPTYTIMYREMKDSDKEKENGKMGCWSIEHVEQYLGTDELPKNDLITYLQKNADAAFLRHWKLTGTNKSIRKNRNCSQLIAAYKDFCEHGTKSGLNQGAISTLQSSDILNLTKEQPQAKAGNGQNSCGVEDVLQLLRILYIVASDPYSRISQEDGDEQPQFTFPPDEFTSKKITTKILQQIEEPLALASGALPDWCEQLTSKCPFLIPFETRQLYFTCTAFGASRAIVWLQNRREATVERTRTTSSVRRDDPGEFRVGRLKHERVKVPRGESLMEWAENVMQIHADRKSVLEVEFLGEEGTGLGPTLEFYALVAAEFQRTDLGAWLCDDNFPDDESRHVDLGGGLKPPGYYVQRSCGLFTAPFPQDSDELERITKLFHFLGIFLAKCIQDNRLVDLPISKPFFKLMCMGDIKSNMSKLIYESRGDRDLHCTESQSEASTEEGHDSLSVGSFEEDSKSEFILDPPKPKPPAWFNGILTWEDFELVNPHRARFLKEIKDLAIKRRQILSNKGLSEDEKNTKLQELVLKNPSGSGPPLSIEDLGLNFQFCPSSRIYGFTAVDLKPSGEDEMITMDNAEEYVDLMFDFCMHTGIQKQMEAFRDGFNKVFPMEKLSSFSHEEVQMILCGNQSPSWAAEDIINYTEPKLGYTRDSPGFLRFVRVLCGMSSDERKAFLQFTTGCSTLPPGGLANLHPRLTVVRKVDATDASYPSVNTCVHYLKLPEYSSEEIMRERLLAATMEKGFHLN

Results are given in words; binding and its absence hold for the method and conditions named. In cells and extracts the contact can be indirect. A yes stands for co-enrichment or nearness to the bait. Other partners may have been found. Where a sequence is shown, tags or fusion partners need not be part of it.

As to “HECTD1 (from UniProt Q9ULT8 1-2610) (enzyme)”, the binding result is “binds”.

(Values after PMC11251733.)
